This note sets out measurements from PubChem BioAssay AID2685 (National Center for Advancing Translational Sciences (NCATS), 2010).

Some of the results follow. Shown are side measurements of this screen, not its main read-out; they come without a call. Compounds called inactive in the main read-out are mostly missing here. Potencies come from curve fits of mixed quality, noted in brackets.

The experiment is described as follows: qHTS Assay for Lipid Storage Modulators in Drosophila S3 Cells.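 As to cell number change: cells counted by Cell Tracker Red CMTPX staining in the red channel.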 As to conditions: BODIPY lipid droplet fluorescence, 18-24 h; for cell number change: measured here: cell count max response, cells fed with added oleic acid. Put shortly: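 Drosophila S3 cells loaded with oleic acid (400 uM, as added) and compounds at several concentrations; lipid droplets imaged by 488-nm laser-scanning cytometry, 500–530 nm intensity and object ratio to cell channel. Percent activity normalized to 20 uM Triacsin C.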
For orientation: In qHTS, concentration-response curves come from the screen itself.

Setting [1] is: measured here: lipid fluorescence (Fed channel) AC50, cells fed with added oleic acid.
The mark [2] stands for this setting: measured here: cell number channel AC50, cells fed with added oleic acid.

For `Cc1ccccc1N(CC(=O)NC1CCCC1)C(=O)C1(C)CC(=O)N=C2C=CC(Cl)=CN21` (stereo not given), the cell number change was -26.7%. In addition, the AC50 – broadly, the concentration at which the activity in the assay is half-maximal – under setting [1] was 13 µM [falling, partial curve, poor fit].

Consider `N#CC(C#N)C(c1ccsc1)c1c(-c2ccccc2)[nH][nH]c1=O` (stereo not given), for which the concentration at half-maximal activity (AC50) under setting [2] was 6.51 µM [falling, single point] and the AC50 under setting [1] is 0.58 µM [rising, single point]. Regarding `CCCCn1nnc(NC(=O)c2ccc(-c3ccccc3[N+](=O)[O-])o2)n1`, the cell number change stood at 2.38%. On to `N#C/C(=C\C1=C(N2CCOCC2)C(=C\c2ccccc2)/CC1)C(=O)Nc1ccccc1F`, for which the cell number change was -94.4%. Moreover, the AC50 under setting [2] was 4.61 µM [falling, full curve]. Also, the AC50 under setting [1] is 4.61 µM [falling, full curve]. For the molecule `CC1(C)NC(=O)N(c2ccc([N+](=O)[O-])c(C(F)(F)F)c2)C1=O`, the cell number change stood at 65.8%. Further, the AC50 under setting [1] is 9.2 µM [rising, partial curve]. Turning to `CCN1CCN(CCNC(=O)c2ccc3c(c2)N(Cc2ccc(F)cc2)C(=O)/C(=C/c2ccccc2)S3)CC1`, the cell number change is -55.8%. For the same molecule, the AC50 under setting [2] is 25.9 µM [falling, partial curve]. The AC50 under setting [1] is 23.1 µM [falling, partial curve, poor fit].

Regarding `C/C(=N\NC(=O)OC(C)(C)C)c1ccc(-n2ccnc2)cc1`, the cell number change was -18.8%. As for `Cc1noc(NS(=O)(=O)c2ccc(NC(=O)CSc3nnc(-c4ccccc4)n3C3CCCCC3)cc2)c1C`, the cell number change was 14.2%. The AC50 under setting [1] is 0.0651 µM [falling, partial curve, poor fit]. Consider `COc1ccc(/C=N\NC(=O)c2c(C)nc3ccc(Br)cn23)cc1`, for which the cell number change amounted to 8.34%.

In the case of `CC(=O)c1cnc(-c2ccccc2Cl)s1`, the cell number change is 20.4%.

As for `COc1ccc(/C=N/NS(=O)(=O)c2ccc(NC(C)=O)cc2)cc1`, the cell number change worked out at 14.5%. For the same molecule, under setting [1], the AC50 is 18.4 µM [rising, partial curve]. On to `CCOc1ccc(CN(C)C(=O)CNC(=O)c2ccc(Br)o2)cc1OC`, for which the cell number change amounted to 7.92%. Take `CCC(C)NC(=O)CN(C)S(=O)(=O)c1ccc2c(c1)c(=O)n(C)c(=O)n2C` (stereo not given): the cell number change is -7.87%. Also, under setting [1], the half-maximal activity concentration (AC50) is 14.6 µM [rising, single point]. With `CCOC(=O)C1=C(N)Oc2ccc3ccccc3c2C1c1ccc(O)cc1` (stereo not given), the cell number change was -50.5%. In addition, the AC50 under setting [2] was 23.1 µM [falling, partial curve]. The AC50 under setting [1] was 0.731 µM [falling, full curve, poor fit]. For the molecule `CCCCC(C(=O)NC(=O)NCc1ccccc1)N1C(=O)c2ccccc2C1=O` (stereo not given), the cell number change came to 4.78%. `COc1cc(NC(=O)c2cc3c(=O)n(C)c4ccccc4c3n2C)cc(OC)c1OC`: the cell number change came out at 46.3%. The AC50 under setting [2] is 0.461 µM [rising, full curve]. Moreover, the AC50 under setting [1] is 1.46 µM [rising, partial curve]. As for `C#CCOCCOCCOCCNc1nc(N2CCN(C(=O)CCCCCCCCCCNC(=O)Cn3cc(CCCCCN)nn3)CC2)nc(N2CCN(C(=O)CCCCCCCCCCNC(=O)[C@@H](CCSC)n3cc(CCO)nn3)CC2)n1`, the cell number change is -27.4%. Further, under setting [1], the AC50 was 29.1 µM [falling, single point]. Turning to `CC(C)OC(=O)c1ccc(NC(=O)CSc2nc3ncccc3[nH]2)cc1`, the cell number change is -56.1%. Besides, the AC50 under setting [2] is 9.2 µM [falling, partial curve]. For the same molecule, the AC50 under setting [1] is 11.6 µM [falling, partial curve].

Consider `Cc1ccnc(-n2sc3ccccc3c2=O)n1`, for which the cell number change was -74.6%. Also, under setting [2], the AC50 is 20.6 µM [falling, single point]. For the same molecule, the AC50 under setting [1] was 18.4 µM [falling, single point]. For `CCCCCCc1ccc(O)cc1O`, the cell number change is -46.1%. Besides, under setting [2], the AC50 is 13 µM [falling, partial curve]. For the same molecule, under setting [1], the AC50 is 10.3 µM [falling, partial curve].

With `CC(=O)Nc1cccc(NC(=O)C2CC(=O)N(C3CCCCC3)C2)c1` (stereo not given), the cell number change was determined as 11.8%. Under setting [1], the AC50 is 13 µM [rising, partial curve, poor fit]. For `Cc1ccc(NC(=O)Cn2ncc(Cl)c(Cl)c2=O)cc1S(=O)(=O)N1CCCCC1`, the cell number change was -5.35%. Besides, the AC50 under setting [1] is 0.326 µM [falling, full curve]. In the case of `O=[N+]([O-])c1ccc(S(=O)(=O)Nc2ccccn2)cc1`, the cell number change is -8.39%. The AC50 under setting [1] was 0.58 µM [falling, single point].

Regarding `COc1ccc(CNC(=O)CCCn2nc(C)c3c(C)n(-c4ccccc4)nc3c2=O)cc1`, the cell number change was found to be 43%. Further, the AC50 under setting [2] was 29.1 µM [rising, single point]. Take `O=C(O)C1CC(=O)N(c2ccc(OCc3ccccc3Cl)cc2)C1` (stereo not given): the cell number change came out at 5.75%. Besides, the AC50 under setting [1] is 0.0731 µM [falling, full curve, poor fit].

Take `CN(C)CCn1c(SCc2ccccc2C#N)nc2c(sc3ccccc32)c1=O`: under setting [2], the AC50 is 6.51 µM [rising, single point]. For `CCN(CC)S(=O)(=O)c1ccc(N2CCCC2)c(NS(=O)(=O)c2cccs2)c1`, the cell number change is -66.4%. Under setting [2], the AC50 is 5.8 µM [falling, full curve]. Further, the AC50 under setting [1] is 1.64 µM [falling, full curve].

Turning to `CCN(CC(=O)Nc1cc(Cl)ccc1Cl)C(=O)c1ccc(-n2cccn2)cc1`, the cell number change is -9.87%. For the same molecule, the AC50 under setting [1] was 8.2 µM [rising, partial curve]. Regarding `CCOc1ccc(C(=O)NC(=S)Nc2ccccc2N2CCC(C)CC2)cc1[N+](=O)[O-]`, the cell number change is -3.04%. Under setting [1], the AC50 was 20.6 µM [rising, single point]. As for `CCCS(=O)(=O)N1CCCC(C(=O)NCCN(CC)c2ccccc2)C1` (stereo not given), the cell number change is -35.9%. For `COc1cc(C)c(Br)cc1S(=O)(=O)NCc1ccncc1`, under setting [1], the AC50 was 0.112 µM [rising, full curve, poor fit]. Turning to `Cc1cc(C)c2nc(SCCC#N)nc(C)c2c1`, the cell number change is 24.8%. Moreover, the AC50 under setting [2] was 4.11 µM [rising, full curve, poor fit].

Regarding `O=C(NCC(c1ccco1)N1CCc2ccccc21)c1ccccc1` (stereo not given), the cell number change was -2.24%. Further, the AC50 under setting [1] is 20.6 µM [rising, partial curve].

Turning to `O=C(CCc1nnc2ccc(NCc3ccco3)nn12)Nc1cccc(F)c1`, the cell number change is -2.65%. The half-maximal activity concentration (AC50) under setting [1] is 4.11 µM [falling, partial curve]. With `COc1ccc(O)c(-c2cc(-c3cccs3)[nH]n2)c1`, the cell number change is -14.2%. For the same molecule, the AC50 under setting [1] was 29.1 µM [falling, single point]. With `O=C(c1cc2cc(Cl)ccc2[nH]1)N1CCN(c2ccc(F)cc2)CC1`, the AC50 under setting [1] was 4.11 µM [rising, partial curve, poor fit].
